Experimental data: PMC3898904

Columns and labels:
[1] = target: T1, MORC1 (yeast two-hybrid fusion) (Arabidopsis thaliana) (UniProt Q84WV6); test: two-hybrid; GAL4-AD (pGADT7) and GAL4-BD (pGBKT7) fusions in yeast strain PJ694a; growth on SD-TLH, 20 mM 3-AT
T1 sequence: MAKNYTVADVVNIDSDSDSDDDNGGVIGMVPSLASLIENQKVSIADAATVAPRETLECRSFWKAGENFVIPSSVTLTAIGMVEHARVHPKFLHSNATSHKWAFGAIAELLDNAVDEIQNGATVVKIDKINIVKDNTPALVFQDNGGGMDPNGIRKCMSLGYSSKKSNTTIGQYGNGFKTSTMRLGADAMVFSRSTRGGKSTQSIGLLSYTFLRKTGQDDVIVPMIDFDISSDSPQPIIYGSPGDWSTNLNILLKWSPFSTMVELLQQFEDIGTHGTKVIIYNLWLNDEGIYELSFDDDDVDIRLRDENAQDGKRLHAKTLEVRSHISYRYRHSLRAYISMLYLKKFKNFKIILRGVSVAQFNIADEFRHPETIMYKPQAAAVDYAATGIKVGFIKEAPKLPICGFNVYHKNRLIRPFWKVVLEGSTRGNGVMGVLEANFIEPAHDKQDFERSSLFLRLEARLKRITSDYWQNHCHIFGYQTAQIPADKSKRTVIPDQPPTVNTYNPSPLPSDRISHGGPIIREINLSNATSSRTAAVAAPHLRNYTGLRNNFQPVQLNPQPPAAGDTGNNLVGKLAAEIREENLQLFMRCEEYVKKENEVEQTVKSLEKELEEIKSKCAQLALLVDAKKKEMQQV

[2] = target: T2, MORC6 (yeast two-hybrid fusion) (Arabidopsis thaliana) (UniProt Q56Y74); test: as above
T2 sequence: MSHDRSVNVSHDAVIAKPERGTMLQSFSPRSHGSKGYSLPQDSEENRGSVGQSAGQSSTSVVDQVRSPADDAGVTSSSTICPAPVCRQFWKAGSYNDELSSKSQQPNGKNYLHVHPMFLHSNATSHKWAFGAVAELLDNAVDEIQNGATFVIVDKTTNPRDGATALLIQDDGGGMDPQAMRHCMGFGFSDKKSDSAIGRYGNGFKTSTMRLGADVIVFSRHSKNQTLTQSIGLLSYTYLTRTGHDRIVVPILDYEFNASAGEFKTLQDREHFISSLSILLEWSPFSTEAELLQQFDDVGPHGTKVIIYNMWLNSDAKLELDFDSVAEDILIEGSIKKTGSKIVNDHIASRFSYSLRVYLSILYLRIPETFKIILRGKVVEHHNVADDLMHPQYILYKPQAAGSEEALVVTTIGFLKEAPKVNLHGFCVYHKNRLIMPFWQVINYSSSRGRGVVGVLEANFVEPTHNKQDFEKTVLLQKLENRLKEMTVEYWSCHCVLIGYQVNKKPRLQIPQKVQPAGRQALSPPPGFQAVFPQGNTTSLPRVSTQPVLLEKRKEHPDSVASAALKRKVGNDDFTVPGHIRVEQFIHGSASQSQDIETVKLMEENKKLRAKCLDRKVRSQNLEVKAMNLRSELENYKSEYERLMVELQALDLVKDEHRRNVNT

Substance	binding [1]	binding [2]
SUVH9-c (truncated SUVH9 without its SET domain, yeast two-hybrid fusion) (Arabidopsis thaliana) (domain or fragment)	no binding	no binding
SUVH2-c (truncated SUVH2 without its C-terminal SET domain, yeast two-hybrid fusion) (Arabidopsis thaliana) (domain or fragment)	no binding	

These are yes or no findings as the source states them, for the method shown. Where a sequence is shown, tags or fusion partners need not be part of it.
